Measurements reported in PubChem BioAssay AID504784 (Drosophila RNAi Screening Center, 2011)
The screen tested about 17,000 reagents; below is a random part of those that have a named target and a result. 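Each column is one replicate's B-score; the combined score over replicates was not deposited, so single values may mislead.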 The numbers tell different reagents against one gene apart. Names joined by + are all predicted targets of the reagent. Further read-outs or replicates are left out here.

- Purpose: 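Fly genes whose silencing alters how much lipid cells keep in droplets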 (primary screen)
- System: Drosophila Kc167 embryonic cells
- Knock-down reagent: long dsRNA against Drosophila genes, about 250 ng dsRNA per well
- Time to read-out: 4 days
- Conditions: cells fed 400 µM oleic acid bound to BSA
- Read-out: 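Microscope images give a droplet-to-nucleus area ratio, taken as log and converted to a screen-wide B-score; higher values mean greater lipid storage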
- Reading the numbers: droplet/nuclear area B-score: higher = more stored lipid (overstorage)

predicted target	dsRNA no.	droplet/nuclear area B-score, replicate 1	droplet/nuclear area B-score, replicate 2
larp	1	1.69	-0.487
larp	2	3.63	-0.564
larp	3	-0.435	0.756
scaf6	1	-0.721	0.799
scaf6	2	-0.502	-0.457
scaf6	3	1.41	-0.356
out	1	-1.42	0.115
CG13427	1	0.11	-0.449
BTBD9	1	-0.0597	0.923
BTBD9	2	-2.72	3.21
CG9662	1	-0.0194	0.364
CG10799	1	-0.726	1.92
Clk	1	-0.365	-0.777
vlc	1	-0.836	-0.0113
CG13965	1	-1.71	0.554
IFT46	1	3.38	-0.0111
CG42505 + CG42504 + CG31358	1	3.15	0.0721
CG42505 + CG42504 + CG31358	2	0.674	2.52
CG42505 + CG42504 + CG31358	3	-0.264	0
CG42449	1	-0.562	0.174
otk2	1	-0.0397	0.00252
CR18228	1	0.398	-0.587
pdgy	1	0.945	-0.235
pdgy	2	3.95	0.121
CG32681	1	0.0632	-0.0126
Mettl14	1	4.97	-2.03
Golgin84	1	-1.3	-2.07
Ir75b	1	-0.389	0.135
angel	1	0.4	-0.295
angel	2	0.223	-0.145
Hsc70-5	1	0.0945	3.68
chico	1	-1.02	-0.379
CG14367	1	-1.25	-0.705
ric8b + ric8a	1	-0.0203	-0.375
ymp	1	-0.186	-0.176
ymp	2	0.116	0.309
CG10934	1	-0.893	0.502
CG31810	1	0.923	3.18
Smyd5	1	-0.575	-0.41
CG14778	1	-0.988	-0.322
Wnt4	1	0.47	-0.815
Wnt4	2	0.0825	0.567
Gr22d (retired record)	1	-0.41	-1.05
CG5727	1	-0.107	0.336
Dhc93AB	1	0.0906	0.589
CG5346	1	0.177	
PGRP-SA	1	-0.169	-0.013
CG5577	1	-0.526	0.396
CG14696	1	0.204	0.704
Nep5	1	-0.00678	
E(spl)mgamma-HLH	1	-1.44	2.17
eIF3g2	1	1.49	-0.897

Reformatted: entries from further up
predicted target,dsRNA no.,"droplet/nuclear area B-score, replicate 1","droplet/nuclear area B-score, replicate 2"
scaf6,3,1.41,-0.356
out,1,-1.42,0.115
CG13427,1,0.11,-0.449
BTBD9,1,-0.0597,0.923
BTBD9,2,-2.72,3.21
CG9662,1,-0.0194,0.364
CG10799,1,-0.726,1.92
Clk,1,-0.365,-0.777
vlc,1,-0.836,-0.0113

More results:
predicted target	dsRNA no.	droplet/nuclear area B-score, replicate 1	droplet/nuclear area B-score, replicate 2
CG33096	1	0.194	-0.233
Cog7	1	-0.0122	-1.47
CG14107	1	3.08	2.6
CG7099	1	0.0379	0.265
red	1	0.426	-4.28
red	2	-0.175	-0.557
CG14131	1	0.416	2.39
eIF3f2	1	1.24	-1.66
Hsp110	1	1.67	-0.255
CG6125	1	0.0109	-0.57
Cyp4ac1	1	0.479	0.504
vilya	1	-0.255	0.977
RpS13	1	1.52	-1.28
RhoL	1	-0.092	-0.283
CG14354	1	-0.43	2.26
CG18266	1	-1.59	0.775
scramb1	1	-0.278	0.795
scramb1	2	-1.87	-1.72
scramb1	3	-2.21	-1.64
blow	1	-0.41	0.107
CG3270	1	0.565	-0.189
Ttc1	1	0.11	0.289
Ttc1	2	1.74	
CG12502	1	-0.0223	0.937
CG12502	2	0.737	-1.32
CG3630	1	-0.195	
sicily	1	1.53	-2.2
CG7091	1	0.038	-0.566
CG7091	2	-1.68	-0.368
CG43707	1	-0.672	-0.0654
CG43707	2	-1.96	-0.507
